No constants are given. Whether binding was seen depends on the method and setting. Some results given as binding are weak or reduced against the parent protein; the word gives no strength.
Target: mPD1 (soluble, ELISA of Examples 20 and 24) (mouse) (UniProt Q02242)
Experiment: ELISA

Sequences of proteins named here, by UniProt entry; tags and fusion partners are left off. Residues count along the entry.
UniProt Q02242, residues 25-167: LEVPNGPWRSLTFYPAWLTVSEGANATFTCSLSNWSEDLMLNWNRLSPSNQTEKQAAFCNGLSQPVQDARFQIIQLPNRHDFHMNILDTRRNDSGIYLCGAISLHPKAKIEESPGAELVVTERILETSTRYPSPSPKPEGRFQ

Binder | binding
m2C1 (antibody, V domains shown) VH: QVQLVQSGAEVKKPGASVKVSCKASGHTFTSYYIHWVRQAPGQGLEWMGIINPSGGSTSYAQKFQGRVTMTRDTSTSTVYMELSSLRSEDTAVYYCARDRAYGGAGDYWGQGTLVTVSS VL: DIQMTQSPSSLSASVGDRVTITCRASRSISSWLAWYQQKPGKAPKLLIYAASSLQSGVPSRFSGSGSGTDFTLTISSLQPEDFATYYCQQSYSIPATFGQGTKVEIK | binds
m4D1 (antibody, V domains shown) VH: QVQLVQSGAEVKKPGASVKVSCKASGHTFTSYYIHWVRQAPGQGLEWMGIINPSGGSTSYAQKFQGRVTMTRDTSTSTVYMELSSLRSEDTAVYYCARDRAYGGAGDYWGQGTLVTVSS VL: DIQMTQSPSSLSASVGDRVTITCRASQSISAWLAWYQQKPGKAPKLLIYKASSLESGVPSRFSGSGSGTDFTLTISSLQPEDFATYYCQQSYSPPATFGGGTKVEIK | binds

Other lines, results leading:

binding | Binder
binds | m3A7 (antibody, V domains shown) VH: QVQLVQSGAEVKKPGASVKVSCKASGHTFTSYYIHWVRQAPGQGLEWMGIINPSGGSTSYAQKFQGRVTMTRDTSTSTVYMELSSLRSEDTAVYYCARDRAYGGAGDYWGQGTLVTVSS VL: DIQMTQSPSSLSASVGDRVTITCRASRSISNWLAWYQQKPGKAPKLLIYAASSLQSGVPSRFSGSGSGTDFTLTISSLQPEDFATYYCQQSYSAPVTFGQGTKVEIK
binds | m2A1 (antibody, V domains shown) VH: QVQLVQSGAEVKKPGASVKVSCKASGHTFTSYYIHWVRQAPGQGLEWMGIINPSGGSTSYAQKFQGRVTMTRDTSTSTVYMELSSLRSEDTAVYYCARDRAYGGAGDYWGQGTLVTVSS VL: DIQMTQSPSSLSASVGDRVTITCRASRGISSWLAWYQQKPGKAPKLLIYAASSLQSGVPSRFSGSGSGTDFTLTISSLQPEDFATYYCQQSYSPPWTFGQGTKVEIK

Source: patent publication US20230416363A1
